Results: article PMC7819943, “Rice protein-binding microarrays: a tool to detect cis-acting elements near promoter regions in rice”
The other results are listed elsewhere or left out.

Amino acid sequences for entries named in this document (tags omitted).
UniProt Q0JBA9, entry or part of it: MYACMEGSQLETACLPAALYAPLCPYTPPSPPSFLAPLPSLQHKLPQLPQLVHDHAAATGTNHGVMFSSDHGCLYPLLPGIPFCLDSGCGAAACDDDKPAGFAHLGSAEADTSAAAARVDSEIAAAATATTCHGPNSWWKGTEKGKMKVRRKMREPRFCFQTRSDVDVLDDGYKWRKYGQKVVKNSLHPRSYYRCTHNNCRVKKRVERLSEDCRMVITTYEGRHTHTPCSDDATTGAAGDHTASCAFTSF

target: OsWRKY34 (Oryza sativa, UniProt Q0JBA9 1-250); experiment: protein-binding microarray (RPBM); PBS, 2% BSA, 51.3 ng/ul salmon testes DNA, 50 uM zinc acetate, 200 nM TF, 25 C, 1 h; high values mean tight binding; settings: protein: recombinant; tags: N-terminal polyhistidine and DsRed monomer fusion (pET32a); label: CyDye5-dUTP incorporated in the synthesized complementary strand; 3' TTTTT single-stranded linker to array surface; dsDNA, one strand shown
In short: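 The binding signal is fluorescence intensity per feature, in arbitrary units, read on an Axon 4000B scanner. Polyhistidine- and DsRed-tagged transcription factors (N-terminal fusions) from E. coli BL21-CodonPlus were purified on Ni–NTA and applied at 200 nM for 1 h at 25 °C to a double-stranded, BSA-blocked custom Agilent array in buffer with 50 µM zinc acetate.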

Sequence	binding signal
GCCGCCGCCGCCGCTTCATCCCGACGCCGAAAGCCCGAAACGGAGTCACCTAGTGCAG	8830 fluorescence intensity (a.u.)
TCCTCGCAATTCTAATCTCGGCCATATATATTGCTGCTTGCGGAGTCACCTAGTGCAG	9990 fluorescence intensity (a.u.)
TAACTACTCCCACCGTTTCATATTATAAGTCGTTTGATTTCGGAGTCACCTAGTGCAG	11100 fluorescence intensity (a.u.)
TTCATTTCTATTGTTATTTCTATTGTTTTGTTATTTTCATCGGAGTCACCTAGTGCAG	10600 fluorescence intensity (a.u.)
GAATCTTACACGTGGTCTCCCACACATACACTCATCGCAACGGAGTCACCTAGTGCAG	8170 fluorescence intensity (a.u.)
TATATCCACCTTTAATTTCTTCCCTAATATATTCATATCACGGAGTCACCTAGTGCAG	8192 fluorescence intensity (a.u.)
AGGGTTTGTCTCGTCCTCACTCCTCACTCTGCTTCCTTGTCGGAGTCACCTAGTGCAG	10500 fluorescence intensity (a.u.)
GCGGTCGTCTACCTCGCTCCGCTGCGGCGTTCTCTCCCCGCGGAGTCACCTAGTGCAG	8720 fluorescence intensity (a.u.)
TTGGCTCCTATCTTTCATTTTTTCATCCACAGGATCTTGCCGGAGTCACCTAGTGCAG	8930 fluorescence intensity (a.u.)
GTTTGTTGTAGCTTTCTGTATATCACCATAGTACTTTGTACGGAGTCACCTAGTGCAG	8100 fluorescence intensity (a.u.)
CCGTGTGCGCATTTTGCGCTTTGGTCCTTGCCGCCCTTACCGGAGTCACCTAGTGCAG	10200 fluorescence intensity (a.u.)
AAAAATCCCTGCGCGTTTCTCATATGCTTTATATACAACACGGAGTCACCTAGTGCAG	9300 fluorescence intensity (a.u.)
TAGTGTTAAGTCAAATGATCACCTCTTTTTTTCTGTTTGACGGAGTCACCTAGTGCAG	8610 fluorescence intensity (a.u.)
ACCCTGATTAACGATTTCCATCAACATCACAACGCCACCACGGAGTCACCTAGTGCAG	9300 fluorescence intensity (a.u.)
ATAGGAGGGGTCATATTAGTAGGGTTTTTTTTGGACGGAGCGGAGTCACCTAGTGCAG	8260 fluorescence intensity (a.u.)
CATCTTTTTGTTTAACATTTCCATTACATTATACTATATGCGGAGTCACCTAGTGCAG	8870 fluorescence intensity (a.u.)
TCTTCTCCAGTGAGCCGTGCCCGTCTGCTCCTCCTCCAATCGGAGTCACCTAGTGCAG	11200 fluorescence intensity (a.u.)
CTCTGAATGACTTCCTAACAAATTCTCTTTTTACCTCTGCCGGAGTCACCTAGTGCAG	8380 fluorescence intensity (a.u.)
GTATCATACCATCCGAACTAGATACTGTTCTCATTTGCCACGGAGTCACCTAGTGCAG	10500 fluorescence intensity (a.u.)
CAAGCACTGGATTGTTATTTCCCTTGTGTGCGTTATATATCGGAGTCACCTAGTGCAG	9150 fluorescence intensity (a.u.)
ATCTGTGTTTCTCTGTCAATTTTTTCATGTGATCCAAACACGGAGTCACCTAGTGCAG	8130 fluorescence intensity (a.u.)

Exported bar-delimited: entries from further up.
Sequence | binding signal
CCGTGTGCGCATTTTGCGCTTTGGTCCTTGCCGCCCTTACCGGAGTCACCTAGTGCAG | 10200 fluorescence intensity (a.u.)
AAAAATCCCTGCGCGTTTCTCATATGCTTTATATACAACACGGAGTCACCTAGTGCAG | 9300 fluorescence intensity (a.u.)
TAGTGTTAAGTCAAATGATCACCTCTTTTTTTCTGTTTGACGGAGTCACCTAGTGCAG | 8610 fluorescence intensity (a.u.)
ACCCTGATTAACGATTTCCATCAACATCACAACGCCACCACGGAGTCACCTAGTGCAG | 9300 fluorescence intensity (a.u.)
ATAGGAGGGGTCATATTAGTAGGGTTTTTTTTGGACGGAGCGGAGTCACCTAGTGCAG | 8260 fluorescence intensity (a.u.)

Remaining list, next part

Sequence	binding signal
TCTCCACGCTGCACCGTGCATCTATGCCTAGTTTGCTTACCGGAGTCACCTAGTGCAG	8680 fluorescence intensity (a.u.)
CCGTCTGCCACGTCATTTTCGCCGCCCTCTGGGAGGGCGACGGAGTCACCTAGTGCAG	8280 fluorescence intensity (a.u.)
GGGTGATTTGTTGTAATGACGCGTGTGGTGGGGTGTGTGGCGGAGTCACCTAGTGCAG	11200 fluorescence intensity (a.u.)
TCTCGCACGCTGCTTGCGGCGTTAGGCCGGCCCATATAACCGGAGTCACCTAGTGCAG	8100 fluorescence intensity (a.u.)
TACTACTACTACTGCTACTACTGGGTTCTGGAGTGATTACCGGAGTCACCTAGTGCAG	10800 fluorescence intensity (a.u.)
ACTCACAAGCCTTGACATGGTCTTGTACTCACTTTTTTTCCGGAGTCACCTAGTGCAG	9240 fluorescence intensity (a.u.)
ATGCAACTAACCCTTATCAGCATCATGTGCCTTTATCTCTCGGAGTCACCTAGTGCAG	8540 fluorescence intensity (a.u.)
GCTTCGATTCAGTTTCAACCCAAACAGAAACCCCAAAAACCGGAGTCACCTAGTGCAG	8060 fluorescence intensity (a.u.)
GTTGTCCTGTGCTTTTGTAATTCTTTGTTGTACATTTTTACGGAGTCACCTAGTGCAG	16300 fluorescence intensity (a.u.)
CACTTCATTCATTCTTGTCCACCCGTTGCCCAGCCCAGACCGGAGTCACCTAGTGCAG	8580 fluorescence intensity (a.u.)
TGGCTTTGACTCTTAGGGTTTGTACGCTACCTAGCTAGCTCGGAGTCACCTAGTGCAG	9660 fluorescence intensity (a.u.)
TTTTCTCAATTATTTCAGGGTCACATAGTACCTCTCCATTCGGAGTCACCTAGTGCAG	8580 fluorescence intensity (a.u.)
CTATCGCCCATCATTTCCGTCGCCGACCTCAGCTGCTGCGCGGAGTCACCTAGTGCAG	9020 fluorescence intensity (a.u.)
TTCTGCTAAAATTTGTACTGTTTGTTCCTTTGAGAAATCCCGGAGTCACCTAGTGCAG	11100 fluorescence intensity (a.u.)
CACTTTCTCCGTTTATTCCTCTCCCTCAACGTTGCCGGCCCGGAGTCACCTAGTGCAG	11500 fluorescence intensity (a.u.)
GTTTTGTTCCTTTTTTTTCCACTCCACATGTATCAGTTATCGGAGTCACCTAGTGCAG	15900 fluorescence intensity (a.u.)
GGGGCGGATCTACAGTGTTAGCATCGGTGTCAGATGACACCGGAGTCACCTAGTGCAG	9290 fluorescence intensity (a.u.)
CGCCACTTCAGACTCCATCTCAGGCATTGTTCAAGCTCATCGGAGTCACCTAGTGCAG	9700 fluorescence intensity (a.u.)
CGCTTTTGATGCATAATTCGACTACTTTATGTCCTATCTTCGGAGTCACCTAGTGCAG	9910 fluorescence intensity (a.u.)
GATCATACTATTCCCCAATTTCTTTCAGTGGGACACGAACCGGAGTCACCTAGTGCAG	10300 fluorescence intensity (a.u.)
CCTACACCCACCCACCCAACCCAAGCCGTCGTCGCGTTCACGGAGTCACCTAGTGCAG	11200 fluorescence intensity (a.u.)

Sequence	binding signal
CCCACCTGCATTCAAGGCCTTGTTCTCAACGATTGAAATACGGAGTCACCTAGTGCAG	11900 fluorescence intensity (a.u.)
ATGTGAGTGTTTTTTTAGTTGGAAATGTGGGTGCATTTTGCGGAGTCACCTAGTGCAG	8560 fluorescence intensity (a.u.)
GCCACCTCAAAGCTCTCCGTTCAAACCGTCCCGCGCCGCCCGGAGTCACCTAGTGCAG	8790 fluorescence intensity (a.u.)
TGTGTTTGCTCGTATTTCTATTATTTTCTTTAGTCCGGCTCGGAGTCACCTAGTGCAG	11000 fluorescence intensity (a.u.)
ACCCCGCCGTCGAGGACATCCTCATCACCGCCGCCCACGTCGGAGTCACCTAGTGCAG	8650 fluorescence intensity (a.u.)
CTCCTCGATCCGTTGCCTTTTGTGCTTTTTTTGGCCTCTTCGGAGTCACCTAGTGCAG	13700 fluorescence intensity (a.u.)
CAAACACAAACACCGGCTCACACGCTCGCCTCCTCCCTCTCGGAGTCACCTAGTGCAG	9140 fluorescence intensity (a.u.)
GTGTTGACCAAACGGCTGATTTTGAACAATTTGGCTGAAGCGGAGTCACCTAGTGCAG	9080 fluorescence intensity (a.u.)
TTCTCCTCAAAATATTGCGAACCTTTTCAGCCATCGGATTCGGAGTCACCTAGTGCAG	8620 fluorescence intensity (a.u.)
GGGGATAGGTATTTGGCGGGGATTCAAAGGATGCGATTGACGGAGTCACCTAGTGCAG	12100 fluorescence intensity (a.u.)
ATGCACGCAAAGATTAATCTGCTCATGCTTTTGCTTTAGTCGGAGTCACCTAGTGCAG	8780 fluorescence intensity (a.u.)
AGGTACCTTTCTTTATACATGTACGAAACATACATATACCCGGAGTCACCTAGTGCAG	8440 fluorescence intensity (a.u.)
CCATTTGAGTTCATTTTTTCTATGGTTGGTTCTTATGTGTCGGAGTCACCTAGTGCAG	8920 fluorescence intensity (a.u.)
CCTGGTGCCAGCTGCTGCTCCGCTACTTCCCACTGCGCGACGGAGTCACCTAGTGCAG	11000 fluorescence intensity (a.u.)
CCGCCCCAAGAGCTACCCCGCCTCGTCTCATCTCATCTCACGGAGTCACCTAGTGCAG	8710 fluorescence intensity (a.u.)
CATGCTACGTGGACGATGACATGGATTTTTTTATTTTTTCCGGAGTCACCTAGTGCAG	9280 fluorescence intensity (a.u.)
AACGGTCAAATATATTTAAAAAGTCAACGCGCTAAATATTCGGAGTCACCTAGTGCAG	10500 fluorescence intensity (a.u.)
TAGCTATTGCTCGCTGGCCTACCATTAATTAGTATACTGTCGGAGTCACCTAGTGCAG	8800 fluorescence intensity (a.u.)
TCTTTCTTGCCCTTTTATCTCGAGCCACTTGGTGCAGATTCGGAGTCACCTAGTGCAG	8370 fluorescence intensity (a.u.)
CCATCGATATACATATGTAACTCACCTATTCTTAATCTTTCGGAGTCACCTAGTGCAG	8530 fluorescence intensity (a.u.)
ATCCACTTGACCACCTTGCATCGATTCCCAGTTCGGATTGCGGAGTCACCTAGTGCAG	8830 fluorescence intensity (a.u.)

Sequence	binding signal
CCCCACCCCGACCTCTCCCCGGTATTCTCGTCGCCGTCCGCGGAGTCACCTAGTGCAG	8550 fluorescence intensity (a.u.)
TATTATTACTGGGCAGCATTTCATTTCGAAGCATTTCCAACGGAGTCACCTAGTGCAG	8420 fluorescence intensity (a.u.)
ATCATAGTGACATTTTTTATATATTTTTAGTGGTATAAGTCGGAGTCACCTAGTGCAG	9020 fluorescence intensity (a.u.)
CATTCCATGCCTTCGGTAGCCACGAGTGCCTCTCCGTCATCGGAGTCACCTAGTGCAG	13100 fluorescence intensity (a.u.)
GTATGTACTGGGTCTAATAAAGTCAATCTTAACCTCTTGTCGGAGTCACCTAGTGCAG	9690 fluorescence intensity (a.u.)
TACTGAGCTCCGGCCTCTTATTTTTATTCCATTTTATTTTCGGAGTCACCTAGTGCAG	10500 fluorescence intensity (a.u.)
CGTATTTATCATTTATTTTGCAGGTGTGACTTGGTTTATTCGGAGTCACCTAGTGCAG	12000 fluorescence intensity (a.u.)
CACTAATCTTCTCTCTCCACTTTTATCTTCTTAAAATATGCGGAGTCACCTAGTGCAG	8150 fluorescence intensity (a.u.)
TACATGTGCTGTCTCAGTCGCTATTGCTGCCCATGGCTTTCGGAGTCACCTAGTGCAG	9360 fluorescence intensity (a.u.)
ACAATGCCATCCATCGATCTCCTCGCGCACACCGTTGATACGGAGTCACCTAGTGCAG	8630 fluorescence intensity (a.u.)
CCAGCGGTCGAACCGTTGACCCGGTGGTTCGTCCGGTGAACGGAGTCACCTAGTGCAG	8200 fluorescence intensity (a.u.)
CAATTTTTTTTTTGTTCTGGTCCACTGTCCTCACAAGTTCCGGAGTCACCTAGTGCAG	9000 fluorescence intensity (a.u.)
CGATCCGCTTGCAGGCGGCGGCGGCGGGAGGGTGGTGGGGCGGAGTCACCTAGTGCAG	18000 fluorescence intensity (a.u.)
GGTTCGCCATGGATGGGTGGGCGGCGAGCTGCTGCTGCTTCGGAGTCACCTAGTGCAG	8590 fluorescence intensity (a.u.)
GCGAACTCCGAGCGCGGAGGTTGAGGCGGCGGCGAGCGTGCGGAGTCACCTAGTGCAG	9820 fluorescence intensity (a.u.)
CACCCTCTCCTCTCGTCTCGCGGTTGCTTGGGTGCTTGTACGGAGTCACCTAGTGCAG	8170 fluorescence intensity (a.u.)
TGGGTTGGATTTATTTATTTATTTATTATTTTAGTATATACGGAGTCACCTAGTGCAG	12200 fluorescence intensity (a.u.)
ATTTCTCCACCGGTGCTAGTTTTAGCTTATACTTAATTAACGGAGTCACCTAGTGCAG	9080 fluorescence intensity (a.u.)
TCCTTTGTACACGCCACGGCAGAGGCTCTTTCTGTCTATACGGAGTCACCTAGTGCAG	11000 fluorescence intensity (a.u.)
GCCATCCCTGCAACAGTCGCGATGCATCATGCACCTGCCCCGGAGTCACCTAGTGCAG	8800 fluorescence intensity (a.u.)
TGCCGATTCTTTTTTTTCCTCTCAAACACGATCGTGGATGCGGAGTCACCTAGTGCAG	9100 fluorescence intensity (a.u.)
